Laboratory results: EP1383793B1 (priority 2000, dated 2001)
Positions of bridges follow the written chain, without caps; N, C: chain ends. Residues, ends and D or L forms follow the SMILES beside them. *: point of attachment. Biotin = O=C1N[C@H]2[C@H](CS[C@H]2CCCCC(=O)*)N1

Test: Phage ELISA, background signal on non-fat milk (NFM)
Conditions: 405 nm

In order of rising “Absorbance Values NFM” value:
1. CC(C)C[C@H](NC(=O)[C@H](Cc1c[nH]c2ccccc12)NC(=O)[C@@H](N)CCCCN)C(=O)N[C@@H](CC(=O)O)C(=O)N[C@@H](CCC(N)=O)C(=O)N[C@@H](CCC(=O)O)C(=O)N[C@@H](Cc1c[nH]c2ccccc12)C(=O)N[C@@H](C)C(=O)N[C@@H](Cc1c[nH]c2ccccc12)C(=O)N[C@H](C(=O)N[C@@H](CCC(N)=O)C(=O)N[C@H]1CSSC[C@@H](C(=O)N2CCC[C@H]2C(=O)N[C@@H](CO)C(=O)N[C@@H](CCCCN)C(=O)N[C@@H](CCCCNC(=O)CCCC[C@@H]2SC[C@@H]3NC(=O)N[C@@H]32)C(N)=O)NC(=O)CNC(=O)[C@H](CCCNC(=N)N)NC(=O)CNC(=O)[C@H](Cc2ccc(O)cc2)NC(=O)[C@H](C(C)C)NC(=O)[C@H](CCC(=O)O)NC1=O)C(C)C [Clone D8] (H-KWLDQEWAWVQCEVYGRGCPSKK(Biotin)-NH2; disulfide 12-19 (inferred); N-terminus assumed)  0.09
2. KSMFVAGSDRWPGYGVLADWLKK [Clone F2]  0.09
3. CSCC[C@H](NC(=O)[C@@H](NC(=O)[C@H](CO)NC(=O)[C@H](CC(C)C)NC(=O)[C@H](CC(C)C)NC(=O)[C@H](C)NC(=O)[C@H](CO)NC(=O)[C@H](Cc1c[nH]c2ccccc12)NC(=O)[C@@H](N)CCCCN)C(C)C)C(=O)N[C@@H](CC(=O)O)C(=O)N[C@H](C(=O)NCC(=O)N[C@@H](Cc1ccccc1)C(=O)N[C@@H](Cc1ccc(O)cc1)C(=O)N[C@@H](C)C(=O)N[C@@H](Cc1c[nH]c2ccccc12)C(=O)N[C@@H](Cc1ccccc1)C(=O)N[C@@H](CC(=O)O)C(=O)N[C@@H](CC(=O)O)C(=O)N[C@@H](C)C(=O)N[C@H](C(=O)N[C@@H](CCCCN)C(=O)N[C@@H](CCCCNC(=O)CCCC[C@@H]1SC[C@@H]2NC(=O)N[C@@H]21)C(N)=O)C(C)C)[C@@H](C)O [Clone B8] (H-KWSALLSVMDTGFYAWFDDAVKK(Biotin)-NH2; N-terminus assumed)  0.10
4. CC[C@H](C)[C@H](NC(=O)[C@H](C)NC(=O)[C@H](CC(=O)O)NC(=O)[C@H](Cc1ccc(O)cc1)NC(=O)[C@H](Cc1ccccc1)NC(=O)[C@H](CC(=O)O)NC(=O)[C@H](CCCCN)NC(=O)[C@H](Cc1ccc(O)cc1)NC(=O)[C@@H](N)CC(=O)O)C(=O)N[C@@H](CC(=O)O)C(=O)N[C@@H](CCC(N)=O)C(=O)N[C@@H](CC(C)C)C(=O)N[C@H](C(=O)N[C@@H](CCCNC(=N)N)C(=O)NCC(=O)N[C@@H](CO)C(=O)N[C@@H](C)C(=O)N[C@@H](CCCNC(=N)N)C(=O)N[C@@H](C)C(=O)NCC(=O)NCC(=O)N[C@H](C(=O)N[C@@H](CCCNC(=N)N)C(=O)N[C@@H](CC(=O)O)C(=O)N[C@@H](CCCCN)C(=O)N[C@@H](CCCCNC(=O)CCCC[C@@H]1SC[C@@H]2NC(=O)N[C@@H]21)C(N)=O)[C@@H](C)O)C(C)C [Clone 20E2] (H-DYKDFYDAIDQLVRGSARAGGTRDKK(Biotin)-NH2; N-terminus assumed)  0.11
5. CC[C@H](C)[C@H](NC(=O)[C@H](CCC(=O)O)NC(=O)[C@@H](N)CCCCN)C(=O)N[C@@H](CCC(=O)O)C(=O)N[C@@H](C)C(=O)N[C@@H](CCC(=O)O)C(=O)N[C@@H](Cc1c[nH]c2ccccc12)C(=O)NCC(=O)N[C@@H](CCCNC(=N)N)C(=O)N[C@H](C(=O)N[C@@H](CCCNC(=N)N)C(=O)N[C@H]1CSSC[C@@H](C(=O)N[C@H](C(=O)NCC(=O)NCC(=O)N[C@@H](CCCCN)C(=O)N[C@@H](CCCCNC(=O)CCCC[C@@H]2SC[C@@H]3NC(=O)N[C@@H]32)C(N)=O)C(C)C)NC(=O)[C@H](CCCNC(=N)N)NC(=O)CNC(=O)[C@H](Cc2ccc(O)cc2)NC(=O)[C@H](C(C)C)NC(=O)[C@H](CC(C)C)NC1=O)C(C)C [Clone 20A4] (H-KEIEAEWGRVRCLVYGRCVGGKK(Biotin)-NH2; disulfide 12-18 (inferred); N-terminus assumed)  0.15
